# Experimental data as given in patent publication US20080220446A1, “Method for Detecting and/or Removing Protein and/or Peptide Comprising a Cross-Beta Structure From an Aqueous Solution Comprising a Protein” (priority 2005, published 2008).
# By UniProt entry, the sequences of proteins in these tests, tags left out. Residues count along the entry.
# UniProt P01012, residues 2-386: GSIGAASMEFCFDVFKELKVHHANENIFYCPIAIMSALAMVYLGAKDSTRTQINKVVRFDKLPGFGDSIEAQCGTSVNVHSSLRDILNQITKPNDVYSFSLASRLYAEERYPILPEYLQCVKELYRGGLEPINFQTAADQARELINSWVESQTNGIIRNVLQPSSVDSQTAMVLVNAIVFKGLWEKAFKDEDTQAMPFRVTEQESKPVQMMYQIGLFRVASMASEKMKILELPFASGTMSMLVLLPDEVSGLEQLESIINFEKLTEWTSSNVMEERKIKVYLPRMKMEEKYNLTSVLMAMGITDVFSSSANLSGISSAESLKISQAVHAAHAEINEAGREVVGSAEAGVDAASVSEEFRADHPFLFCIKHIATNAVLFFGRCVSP
# UniProt P00750, residues 36-562: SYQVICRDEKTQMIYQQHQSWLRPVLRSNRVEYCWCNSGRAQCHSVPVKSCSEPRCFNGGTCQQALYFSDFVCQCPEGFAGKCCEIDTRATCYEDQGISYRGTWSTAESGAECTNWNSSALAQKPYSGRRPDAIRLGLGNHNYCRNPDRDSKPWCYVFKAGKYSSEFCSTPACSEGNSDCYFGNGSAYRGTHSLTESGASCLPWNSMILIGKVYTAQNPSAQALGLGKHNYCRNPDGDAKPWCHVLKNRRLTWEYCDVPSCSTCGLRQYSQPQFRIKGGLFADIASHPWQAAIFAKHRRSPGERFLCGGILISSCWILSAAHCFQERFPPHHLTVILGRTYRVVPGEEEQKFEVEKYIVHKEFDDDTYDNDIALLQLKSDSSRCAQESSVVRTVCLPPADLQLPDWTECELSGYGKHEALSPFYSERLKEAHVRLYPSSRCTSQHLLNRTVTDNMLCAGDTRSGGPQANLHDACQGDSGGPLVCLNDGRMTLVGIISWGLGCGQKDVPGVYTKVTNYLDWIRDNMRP
# These are yes or no findings as the source states them, for the method shown. Some binding calls cover weakened binding; strength is not graded here.
# Molecular target: heat-denatured ovalbumin (dOVA) (UniProt P01012)
# Test: ELISA, DOVA coated at 1 µg/ml, 80 nM tPA, with or without ellagic acid
substance,measurement,value
tissue-type plasminogen activator (tPA) (from UniProt P00750 36-562) (enzyme),binding,binds
